# Data published in the supplement of paper PMC8728848.
# Some of the results follow.
# How the values were obtained:
# Assay in all cases: glycan array binding signal (z-score within array); higher = stronger binding
# Conditions in all cases: glycan notation: IUPAC condensed, linker removed
# Gal(b1-4)Glc6S = target: Gal(b1-4)Glc6S
# Procedure, shortened: (§1)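 The binding signal is a Z-score computed within each array and averaged over linkers. Arrays of the same protein sequence at different concentrations or buffers were also averaged together. Data originate from 3228 arrays in the Consortium for Functional Glycomics database, kept only where the protein sequence was available.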
# Gal(b1-4)GlcNAc = target: Gal(b1-4)GlcNAc
# Procedure, shortened: as §1
# [1] = target: Gal(b1-4)GlcNAc(a1-6)Gal(b1-4)GlcNAc
# Procedure, shortened: as §1
# Gal(b1-4)GlcNAc(b1-2)Man = target: Gal(b1-4)GlcNAc(b1-2)Man
# Procedure, shortened: as §1
# [2] = target: Gal(b1-4)GlcNAc(b1-2)Man(a1-3)Man(b1-4)GlcNAc(b1-4)GlcNAc
# Procedure, shortened: as §1
# [3] = target: Gal(b1-4)GlcNAc(b1-2)Man(a1-3)[Gal(b1-4)GlcNAc(b1-2)Man(a1-6)]Man(b1-4)GlcNAc(b1-4)GlcNAc
# Procedure, shortened: as §1
# [4] = target: Gal(b1-4)GlcNAc(b1-2)Man(a1-3)[Gal(b1-4)GlcNAc(b1-2)Man(a1-6)]Man(b1-4)GlcNAc(b1-4)[Fuc(a1-6)]GlcNAc
# Procedure, shortened: as §1
# [5] = target: Gal(b1-4)GlcNAc(b1-2)Man(a1-3)[Gal(b1-4)GlcNAc(b1-2)Man(a1-6)][Gal(b1-4)GlcNAc(b1-4)]Man(b1-4)GlcNAc(b1-4)[Fuc(a1-6)]GlcNAc
# Procedure, shortened: as §1
# [6] = target: Gal(b1-4)GlcNAc(b1-2)Man(a1-3)[Gal(b1-4)GlcNAc(b1-2)Man(a1-6)][GlcNAc(b1-4)]Man(b1-4)GlcNAc(b1-4)[Fuc(a1-6)]GlcNAc
# Procedure, shortened: as §1
# [7] = target: Gal(b1-4)GlcNAc(b1-2)Man(a1-3)[GlcNAc(b1-2)Man(a1-6)]Man(b1-4)GlcNAc(b1-4)GlcNAc
# Procedure, shortened: as §1
# [8] = target: Gal(b1-4)GlcNAc(b1-2)Man(a1-3)[GlcNAc(b1-4)][Gal(b1-4)GlcNAc(b1-2)Man(a1-6)]Man(b1-4)GlcNAc(b1-4)GlcNAc
# Procedure, shortened: as §1
# [9] = target: Gal(b1-4)GlcNAc(b1-2)Man(a1-3)[Man(a1-6)]Man(b1-4)GlcNAc(b1-4)GlcNAc
# Procedure, shortened: as §1
# [10] = target: Gal(b1-4)GlcNAc(b1-2)Man(a1-6)Man(b1-4)GlcNAc(b1-4)GlcNAc
# Procedure, shortened: as §1
# [11] = target: Gal(b1-4)GlcNAc(b1-2)Man(a1-6)[GlcNAc(b1-2)Man(a1-3)]Man(b1-4)GlcNAc(b1-4)GlcNAc
# Procedure, shortened: as §1
# [12] = target: Gal(b1-4)GlcNAc(b1-2)Man(a1-6)[Man(a1-3)]Man(b1-4)GlcNAc(b1-4)GlcNAc
# Procedure, shortened: as §1
# [13] = target: Gal(b1-4)GlcNAc(b1-2)[Gal(b1-4)GlcNAc(b1-4)]Man(a1-3)[Gal(b1-4)GlcNAc(b1-2)Man(a1-6)]Man(b1-4)GlcNAc(b1-4)GlcNAc
# Procedure, shortened: as §1
# [14] = target: Gal(b1-4)GlcNAc(b1-2)[Gal(b1-4)GlcNAc(b1-4)]Man(a1-3)[Gal(b1-4)GlcNAc(b1-2)[Gal(b1-4)GlcNAc(b1-6)]Man(a1-6)]Man(b1-4)GlcNAc(b1-4)GlcNAc
# Procedure, shortened: as §1
# [15] = target: Gal(b1-4)GlcNAc(b1-2)[Gal(b1-4)GlcNAc(b1-4)]Man(a1-3)[GlcNAc(b1-4)][Gal(b1-4)GlcNAc(b1-2)Man(a1-6)]Man(b1-4)GlcNAc(b1-4)GlcNAc
# Procedure, shortened: as §1
# [16] = target: Gal(b1-4)GlcNAc(b1-2)[Gal(b1-4)GlcNAc(b1-4)]Man(a1-3)[GlcNAc(b1-4)][Gal(b1-4)GlcNAc(b1-2)[Gal(b1-4)GlcNAc(b1-6)]Man(a1-6)]Man(b1-4)GlcNAc(b1-4)GlcNAc
# Procedure, shortened: as §1
# [17] = target: Gal(b1-4)GlcNAc(b1-2)[Gal(b1-4)GlcNAc(b1-6)]Man(a1-6)[Gal(b1-4)GlcNAc(b1-2)Man(a1-3)]Man(b1-4)GlcNAc(b1-4)GlcNAc
# Procedure, shortened: as §1
# [18] = target: Gal(b1-4)GlcNAc(b1-2)[Gal(b1-4)GlcNAc(b1-6)]Man(a1-6)[Gal(b1-4)GlcNAc(b1-2)Man(a1-3)]Man(b1-4)GlcNAc(b1-4)[Fuc(a1-6)]GlcNAc
# Procedure, shortened: as §1
# [19] = target: Gal(b1-4)GlcNAc(b1-2)[Gal(b1-4)GlcNAc(b1-6)]Man(a1-6)[GlcNAc(b1-4)][Gal(b1-4)GlcNAc(b1-2)Man(a1-3)]Man(b1-4)GlcNAc(b1-4)GlcNAc
# Procedure, shortened: as §1
binder,measurement,setting,value
Pbx2CASH domain (Cryptococcus neoformans) (protein) GIPGPNRLYRLSGPIIFTAADQEIATYGYPTGSERAVLRVEGRNTATAIQGDCRRCARVSVKNLVVDGNRKKLGRMRDFQLATGLVVLGGNEGQSIQNSWIKNPRGFTAIHIREGDKLQCSGARVEKNEIGPVGEEYDPEKDGDDPEMSPLGRPLADGVSIACRDSFIRDNTFRDNTDAAIVVYCSPGTLIHA,glycan array binding signal (z-score),Gal(b1-4)Glc6S,0.292
same,glycan array binding signal (z-score),Gal(b1-4)GlcNAc,-0.557
same,glycan array binding signal (z-score),[1],-0.503
same,glycan array binding signal (z-score),Gal(b1-4)GlcNAc(b1-2)Man,-0.471
same,glycan array binding signal (z-score),[2],-0.427
same,glycan array binding signal (z-score),[3],-0.501
same,glycan array binding signal (z-score),[4],-0.487
same,glycan array binding signal (z-score),[5],-0.745
same,glycan array binding signal (z-score),[6],-0.124
same,glycan array binding signal (z-score),[7],-0.104
same,glycan array binding signal (z-score),[8],0.173
same,glycan array binding signal (z-score),[9],-0.368
same,glycan array binding signal (z-score),[10],-0.46
same,glycan array binding signal (z-score),[11],-0.31
same,glycan array binding signal (z-score),[12],1
same,glycan array binding signal (z-score),[13],-0.138
same,glycan array binding signal (z-score),[14],-0.598
same,glycan array binding signal (z-score),[15],-0.355
same,glycan array binding signal (z-score),[16],0.057
same,glycan array binding signal (z-score),[17],-0.632
same,glycan array binding signal (z-score),[18],0.36
same,glycan array binding signal (z-score),[19],-0.049

# Part of the list above, with tabs.
binder	measurement	setting	value
Pbx2CASH domain (Cryptococcus neoformans) (protein) GIPGPNRLYRLSGPIIFTAADQEIATYGYPTGSERAVLRVEGRNTATAIQGDCRRCARVSVKNLVVDGNRKKLGRMRDFQLATGLVVLGGNEGQSIQNSWIKNPRGFTAIHIREGDKLQCSGARVEKNEIGPVGEEYDPEKDGDDPEMSPLGRPLADGVSIACRDSFIRDNTFRDNTDAAIVVYCSPGTLIHA	glycan array binding signal (z-score)	[4]	-0.487
same	glycan array binding signal (z-score)	[16]	0.057
